No constants are given. Whether binding was seen depends on the method and setting. In cells and extracts the contact can be indirect. A yes stands for co-enrichment or nearness to the bait. Other partners may have been found.
Target: T1, macrophage migration inhibitory factor (MIF), endogenous (human (endogenous in MDA-MB-231 and HeLa)) (UniProt P14174)
T1 sequence: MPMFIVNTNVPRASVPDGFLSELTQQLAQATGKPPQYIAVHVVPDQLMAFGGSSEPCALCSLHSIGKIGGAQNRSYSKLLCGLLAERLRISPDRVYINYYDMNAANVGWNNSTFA
Experiment: affinity purification with mass spectrometry; immunoprecipitation of endogenous MIF from HeLa cells, DMSO or 4 h after MNNG (50 uM, 15 min); MIF KO cells as negative control; hits found under both conditions

binding: binds
B1: Mus81, endogenous (protein, UniProt Q96NY9 1-551)
chain: MAAPVRLGRKRPLPACPNPLFVRWLTEWRDEATRSRRRTRFVFQKALRSLRRYPLPLRSGKEAKILQHFGDGLCRMLDERLQRHRTSGGDHAPDSPSGENSPAPQGRLAEVQDSSMPVPAQPKAGGSGSYWPARHSGARVILLVLYREHLNPNGHHFLTKEELLQRCAQKSPRVAPGSARPWPALRSLLHRNLVLRTHQPARYSLTPEGLELAQKLAESEGLSLLNVGIGPKEPPGEETAVPGAASAELASEAGVQQQPLELRPGEYRVLLCVDIGETRGGGHRPELLRELQRLHVTHTVRKLHVGDFVWVAQETNPRDPANPGELVLDHIVERKRLDDLCSSIIDGRFREQKFRLKRCGLERRVYLVEEHGSVHNLSLPESTLLQAVTNTQVIDGFFVKRTADIKESAAYLALLTRGLQRLYQGHTLRSRPWGTPGNPESGAMTSPNPLCSLLTFSDFNAGAIKNKAQSVREVFARQLMQVRGVSGEKAAALVDRYSTPASLLAAYDACATPKEQETLLSTIKCGRLQRNLGPALSRTLSQLYCSYGPLT

From paper PMC8134555
